In patent US6596873B1, “2-and 2,5-substituted phenylketoenols” (Bayer Aktiengesellschaft, priority 1996, dated 2003):
Some results were stated once for a whole list of compounds, not compound by compound.

What was measured:
Assay type in all cases: in vivo
[1] = system: common spider mite (Tetranychus urticae); experiment: Tetranychus test (OP resistant/dip treatment); details: active compound concentration of 0.01%, after 13 days; bean plants dipped
[2] = system: common spider mite (Tetranychus urticae); experiment: Tetranychus test (OP resistant); details: active compound concentration of 0.1%, after 9 days; bean plants dipped
[3] = system: peach aphid (Myzus persicae); experiment: Myzus test; details: active compound concentration of 0.1%, after 6 days; infested cabbage leaves dipped

O=C1OC2(CCCCC2)C(O)=C1c1ccccc1Cl [Example I-2-a-1]
efficacy (destruction in %) [1]: at least 95%
efficacy (destruction in %) [2]: at least 98%
destruction in % [3]: at least 90%

Cc1ccccc1-c1c(O)c(C)c(-c2ccccn2)oc1=O [Example I-4-a-1]
destruction in % [3]: at least 90%

CC(C)(C)C(=O)OC1=C(c2ccccc2Cl)C(=O)OC12CCCCC2 [Example I-2-b-1]
efficacy (destruction in %) [1]: at least 95%
efficacy (destruction in %) [2]: at least 98%
destruction in % [3]: at least 90%

Cc1ccccc1C1=C(O)C2(CCC(C)CC2)NC1=O (centres unmarked) [Example I-1-a-1]
destruction in % [3]: at least 90%
